Reference: the supplement of paper PMC11006884
This is a selection; strong and weak results do not stand in their true shares. The data scatter; read single values as rough.

Protein sequences, listed by entry. Tags and fused reporters are not part of them. Lines headed by an entry give the natural chain unless they say otherwise; changes in a name come on top.
UniProt P37268: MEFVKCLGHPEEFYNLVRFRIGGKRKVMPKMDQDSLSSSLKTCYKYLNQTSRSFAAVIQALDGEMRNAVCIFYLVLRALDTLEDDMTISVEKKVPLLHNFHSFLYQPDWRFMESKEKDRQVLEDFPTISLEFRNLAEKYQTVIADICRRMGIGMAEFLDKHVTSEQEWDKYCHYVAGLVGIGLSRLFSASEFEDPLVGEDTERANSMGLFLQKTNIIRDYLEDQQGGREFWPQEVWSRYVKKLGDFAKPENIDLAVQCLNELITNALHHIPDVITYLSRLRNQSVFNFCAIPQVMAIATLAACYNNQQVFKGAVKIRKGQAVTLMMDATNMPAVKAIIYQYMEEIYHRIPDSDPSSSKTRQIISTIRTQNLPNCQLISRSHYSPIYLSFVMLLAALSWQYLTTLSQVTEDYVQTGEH
UniProt P41227: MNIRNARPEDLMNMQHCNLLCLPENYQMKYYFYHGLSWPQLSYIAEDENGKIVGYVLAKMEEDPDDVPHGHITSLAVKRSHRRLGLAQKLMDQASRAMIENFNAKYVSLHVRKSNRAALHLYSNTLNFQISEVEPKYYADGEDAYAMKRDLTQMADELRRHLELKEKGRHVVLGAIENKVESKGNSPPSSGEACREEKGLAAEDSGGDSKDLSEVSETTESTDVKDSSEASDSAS
UniProt P41440: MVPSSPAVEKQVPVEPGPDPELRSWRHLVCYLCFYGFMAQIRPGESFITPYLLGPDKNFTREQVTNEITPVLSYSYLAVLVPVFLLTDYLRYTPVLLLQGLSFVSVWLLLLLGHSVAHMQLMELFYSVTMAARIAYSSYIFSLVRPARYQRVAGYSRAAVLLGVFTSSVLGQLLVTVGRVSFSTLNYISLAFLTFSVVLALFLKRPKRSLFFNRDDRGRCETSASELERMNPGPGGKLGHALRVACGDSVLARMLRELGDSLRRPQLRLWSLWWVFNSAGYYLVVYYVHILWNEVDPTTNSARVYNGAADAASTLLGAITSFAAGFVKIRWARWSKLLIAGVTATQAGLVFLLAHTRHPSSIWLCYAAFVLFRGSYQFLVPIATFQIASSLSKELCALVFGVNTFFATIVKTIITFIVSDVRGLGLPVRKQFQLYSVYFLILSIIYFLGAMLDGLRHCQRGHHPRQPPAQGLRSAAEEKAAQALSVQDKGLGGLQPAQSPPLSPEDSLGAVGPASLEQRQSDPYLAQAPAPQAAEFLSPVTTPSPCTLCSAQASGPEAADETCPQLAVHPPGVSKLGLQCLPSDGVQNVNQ
UniProt P36551: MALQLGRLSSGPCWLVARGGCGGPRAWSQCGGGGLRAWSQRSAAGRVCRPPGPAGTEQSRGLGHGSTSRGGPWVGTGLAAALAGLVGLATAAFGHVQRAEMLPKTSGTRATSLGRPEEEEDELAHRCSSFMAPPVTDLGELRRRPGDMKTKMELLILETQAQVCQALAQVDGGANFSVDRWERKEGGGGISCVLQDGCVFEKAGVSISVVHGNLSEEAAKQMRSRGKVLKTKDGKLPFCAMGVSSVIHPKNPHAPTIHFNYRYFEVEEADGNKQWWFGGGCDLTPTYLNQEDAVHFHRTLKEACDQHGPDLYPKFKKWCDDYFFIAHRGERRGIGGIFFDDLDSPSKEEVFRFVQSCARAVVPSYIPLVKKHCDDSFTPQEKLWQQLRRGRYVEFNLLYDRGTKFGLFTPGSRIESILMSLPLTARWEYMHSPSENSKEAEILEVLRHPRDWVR
UniProt P31939: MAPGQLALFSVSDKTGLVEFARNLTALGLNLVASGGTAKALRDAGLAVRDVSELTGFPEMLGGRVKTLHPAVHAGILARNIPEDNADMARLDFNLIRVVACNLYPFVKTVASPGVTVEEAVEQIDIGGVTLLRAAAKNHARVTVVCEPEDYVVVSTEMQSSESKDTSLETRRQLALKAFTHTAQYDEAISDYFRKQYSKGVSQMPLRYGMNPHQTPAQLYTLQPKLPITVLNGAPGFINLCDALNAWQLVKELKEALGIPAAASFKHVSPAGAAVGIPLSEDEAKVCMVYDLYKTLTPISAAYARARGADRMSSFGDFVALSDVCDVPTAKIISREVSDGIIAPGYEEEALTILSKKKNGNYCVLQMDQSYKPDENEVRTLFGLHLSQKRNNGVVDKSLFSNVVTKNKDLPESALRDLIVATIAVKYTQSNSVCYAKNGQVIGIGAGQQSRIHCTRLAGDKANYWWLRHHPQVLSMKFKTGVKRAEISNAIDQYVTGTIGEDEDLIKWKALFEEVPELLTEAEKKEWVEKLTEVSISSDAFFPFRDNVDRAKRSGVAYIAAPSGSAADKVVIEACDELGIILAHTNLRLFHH
UniProt P34932: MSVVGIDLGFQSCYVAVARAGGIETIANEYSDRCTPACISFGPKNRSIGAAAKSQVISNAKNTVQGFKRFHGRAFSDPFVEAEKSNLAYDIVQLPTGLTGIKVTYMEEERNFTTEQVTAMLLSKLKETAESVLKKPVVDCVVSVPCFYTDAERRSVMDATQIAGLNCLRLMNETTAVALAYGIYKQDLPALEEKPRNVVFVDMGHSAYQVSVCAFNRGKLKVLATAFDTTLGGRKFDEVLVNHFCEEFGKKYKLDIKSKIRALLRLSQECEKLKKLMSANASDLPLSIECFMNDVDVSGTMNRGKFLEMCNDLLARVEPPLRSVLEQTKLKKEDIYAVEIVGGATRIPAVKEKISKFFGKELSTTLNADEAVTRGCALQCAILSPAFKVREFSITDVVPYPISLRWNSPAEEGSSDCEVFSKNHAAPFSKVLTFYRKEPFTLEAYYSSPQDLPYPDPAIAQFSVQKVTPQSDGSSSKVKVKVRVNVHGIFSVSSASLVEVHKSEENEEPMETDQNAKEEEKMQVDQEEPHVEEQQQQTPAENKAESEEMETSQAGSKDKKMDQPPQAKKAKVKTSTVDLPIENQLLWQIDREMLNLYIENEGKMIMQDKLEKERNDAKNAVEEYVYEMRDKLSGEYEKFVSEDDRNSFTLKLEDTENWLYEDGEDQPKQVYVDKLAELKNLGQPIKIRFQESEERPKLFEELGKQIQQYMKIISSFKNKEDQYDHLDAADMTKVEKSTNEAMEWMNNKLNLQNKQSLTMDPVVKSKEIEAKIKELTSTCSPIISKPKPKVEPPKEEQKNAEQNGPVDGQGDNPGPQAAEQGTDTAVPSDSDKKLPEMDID
UniProt P31751: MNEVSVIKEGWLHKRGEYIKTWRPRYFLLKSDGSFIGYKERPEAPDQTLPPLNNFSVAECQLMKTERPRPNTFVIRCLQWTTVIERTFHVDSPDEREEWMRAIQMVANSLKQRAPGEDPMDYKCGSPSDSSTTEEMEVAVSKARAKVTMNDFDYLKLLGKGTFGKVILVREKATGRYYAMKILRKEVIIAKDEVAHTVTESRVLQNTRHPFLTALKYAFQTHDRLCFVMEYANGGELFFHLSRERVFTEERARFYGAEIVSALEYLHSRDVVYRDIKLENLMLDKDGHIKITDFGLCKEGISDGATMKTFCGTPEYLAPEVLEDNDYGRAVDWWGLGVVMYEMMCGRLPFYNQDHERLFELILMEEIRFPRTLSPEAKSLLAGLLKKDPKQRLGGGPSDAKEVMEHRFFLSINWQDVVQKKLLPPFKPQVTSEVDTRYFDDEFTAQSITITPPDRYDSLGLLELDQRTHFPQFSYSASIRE
UniProt P40939: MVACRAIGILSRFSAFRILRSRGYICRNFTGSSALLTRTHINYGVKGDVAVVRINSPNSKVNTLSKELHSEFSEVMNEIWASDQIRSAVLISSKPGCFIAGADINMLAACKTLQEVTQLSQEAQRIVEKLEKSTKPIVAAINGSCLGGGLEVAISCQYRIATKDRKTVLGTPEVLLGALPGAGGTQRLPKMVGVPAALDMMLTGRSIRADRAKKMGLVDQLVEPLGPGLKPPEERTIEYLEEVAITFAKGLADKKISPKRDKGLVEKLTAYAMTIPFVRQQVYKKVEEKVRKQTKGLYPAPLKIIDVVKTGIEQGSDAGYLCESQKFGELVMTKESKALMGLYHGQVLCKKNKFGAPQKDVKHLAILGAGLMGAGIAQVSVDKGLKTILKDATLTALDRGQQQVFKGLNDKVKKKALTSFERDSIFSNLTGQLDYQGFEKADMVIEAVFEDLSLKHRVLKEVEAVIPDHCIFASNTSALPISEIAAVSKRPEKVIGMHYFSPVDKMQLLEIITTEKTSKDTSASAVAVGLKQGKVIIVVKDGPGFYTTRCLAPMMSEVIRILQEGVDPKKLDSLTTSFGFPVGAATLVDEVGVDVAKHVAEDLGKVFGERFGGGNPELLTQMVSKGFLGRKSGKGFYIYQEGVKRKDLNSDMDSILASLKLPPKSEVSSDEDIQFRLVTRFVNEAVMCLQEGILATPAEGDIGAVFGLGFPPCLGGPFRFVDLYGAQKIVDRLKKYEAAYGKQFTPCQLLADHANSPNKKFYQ
UniProt P42765: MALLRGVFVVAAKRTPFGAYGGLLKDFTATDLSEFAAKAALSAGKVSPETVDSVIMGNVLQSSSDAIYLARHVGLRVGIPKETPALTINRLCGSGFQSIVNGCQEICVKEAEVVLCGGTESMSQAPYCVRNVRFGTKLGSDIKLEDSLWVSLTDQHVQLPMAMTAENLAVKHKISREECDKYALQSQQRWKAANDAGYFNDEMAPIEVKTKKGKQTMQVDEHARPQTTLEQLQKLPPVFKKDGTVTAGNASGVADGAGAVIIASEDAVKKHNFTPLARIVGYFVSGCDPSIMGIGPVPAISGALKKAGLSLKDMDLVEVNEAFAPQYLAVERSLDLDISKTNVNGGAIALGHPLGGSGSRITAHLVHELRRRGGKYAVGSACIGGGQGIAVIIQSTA
UniProt P34897: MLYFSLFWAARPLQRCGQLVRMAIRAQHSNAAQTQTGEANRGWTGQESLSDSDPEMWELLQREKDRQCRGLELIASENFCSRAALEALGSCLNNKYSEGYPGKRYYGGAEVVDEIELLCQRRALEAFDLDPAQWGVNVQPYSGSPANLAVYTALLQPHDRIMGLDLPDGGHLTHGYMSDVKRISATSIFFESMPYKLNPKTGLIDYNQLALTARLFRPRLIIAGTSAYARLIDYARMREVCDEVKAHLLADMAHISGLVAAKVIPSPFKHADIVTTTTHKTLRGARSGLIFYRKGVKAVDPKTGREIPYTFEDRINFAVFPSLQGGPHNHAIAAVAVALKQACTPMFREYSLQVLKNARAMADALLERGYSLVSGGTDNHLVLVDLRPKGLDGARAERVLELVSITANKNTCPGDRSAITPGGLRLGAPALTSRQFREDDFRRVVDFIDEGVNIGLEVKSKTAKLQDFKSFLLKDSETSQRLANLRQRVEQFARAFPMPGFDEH
UniProt P31930: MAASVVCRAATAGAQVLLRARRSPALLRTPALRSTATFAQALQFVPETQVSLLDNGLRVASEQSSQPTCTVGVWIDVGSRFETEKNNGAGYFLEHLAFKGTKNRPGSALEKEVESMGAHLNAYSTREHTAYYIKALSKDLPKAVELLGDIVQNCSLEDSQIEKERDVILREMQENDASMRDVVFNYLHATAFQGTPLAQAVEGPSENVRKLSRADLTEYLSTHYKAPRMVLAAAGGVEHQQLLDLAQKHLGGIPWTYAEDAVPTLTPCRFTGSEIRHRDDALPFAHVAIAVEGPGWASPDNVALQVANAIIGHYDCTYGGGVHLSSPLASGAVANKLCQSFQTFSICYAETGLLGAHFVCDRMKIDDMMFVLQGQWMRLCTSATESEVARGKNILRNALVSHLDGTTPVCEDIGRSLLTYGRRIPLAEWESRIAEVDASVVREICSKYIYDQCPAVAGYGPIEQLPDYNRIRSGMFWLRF
UniProt P37802: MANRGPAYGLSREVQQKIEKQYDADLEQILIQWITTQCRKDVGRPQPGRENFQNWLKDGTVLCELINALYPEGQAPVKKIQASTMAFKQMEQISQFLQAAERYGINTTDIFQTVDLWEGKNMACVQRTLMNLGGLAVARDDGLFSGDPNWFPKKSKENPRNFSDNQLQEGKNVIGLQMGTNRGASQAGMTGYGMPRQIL
UniProt P31153, whole entry, looked up: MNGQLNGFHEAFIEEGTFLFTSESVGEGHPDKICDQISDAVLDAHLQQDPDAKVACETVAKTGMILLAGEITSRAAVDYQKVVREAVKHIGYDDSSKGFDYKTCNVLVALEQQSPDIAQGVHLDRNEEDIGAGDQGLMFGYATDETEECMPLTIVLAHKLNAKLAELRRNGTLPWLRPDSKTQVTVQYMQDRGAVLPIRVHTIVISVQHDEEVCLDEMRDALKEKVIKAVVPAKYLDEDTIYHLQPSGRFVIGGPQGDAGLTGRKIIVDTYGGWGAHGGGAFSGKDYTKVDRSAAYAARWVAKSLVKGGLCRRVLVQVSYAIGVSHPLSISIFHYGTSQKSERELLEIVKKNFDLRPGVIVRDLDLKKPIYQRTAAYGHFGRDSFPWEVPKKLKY
UniProt P30626: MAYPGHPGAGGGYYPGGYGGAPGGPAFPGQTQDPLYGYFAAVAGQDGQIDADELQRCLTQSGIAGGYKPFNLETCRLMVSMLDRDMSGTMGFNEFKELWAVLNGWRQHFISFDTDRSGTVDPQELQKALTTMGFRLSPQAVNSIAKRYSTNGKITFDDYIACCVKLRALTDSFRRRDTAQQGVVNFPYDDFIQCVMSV

What follows are targets tested with COC(=O)/C=C/c1ccccc1 [methyl cinnamate] (assay: log2 ratio of iodoacetamide-alkyne labeling of the cysteine site, DMSO over compound (competition); higher = stronger covalent engagement of the cysteine by the compound, active = 1 or more). Details: 500 µM; treatment time 1 h; system: HEK293T cell lysate.
Method in brief: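 Reporter intensities give each cysteine's log2 competition ratio as the mean of control channels over the mean of compound channels. The samples were HEK293T lysate (2 mg/mL) given vehicle or electrophile (500 µM, 1 h, ambient temperature), then iodoacetamide alkyne (1 h), followed by click coupling to sCIP-TMT reagents, pooling, trypsin digestion overnight at 37 °C, streptavidin enrichment, acid elution, Orbitrap Eclipse LC-MS/MS with FAIMS and FragPipe quantification. Duplicate channels and three replicates were run, and cysteines quantified in only one replicate were discarded.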

log2 ratio of iodoacetamide-alkyne labeling, inactive:
FDFT1 C6 (UniProt P37268) 0.226
UniProt P41227_C194 0.526
SLC19A1 C580 (UniProt P41440) 0.127
HSPA9 C66 (UniProt P38646) 0.148
CPOX C239 (UniProt P36551) 0.0663
ATIC C325 (UniProt P31939) -0.0613
UniProt P42285_C110 -0.0907
TXLNA C87 (UniProt P40222) 0.217
HSPA4 C146 (UniProt P34932) 0.013
NUP62 C475 (UniProt P37198) 0.074
RPA3 C26 (UniProt P35244) -0.13
AKT2 C297 (UniProt P31751) 0.142
IARS C87 (UniProt P41252) 0.00411
NUP214 C1003 (UniProt P35658) 0.304
HADHA C747 (UniProt P40939) 0.323
CUX1 C802 (UniProt P39880) 0.392
ACAA2 C287 (UniProt P42765) 0.0829
SHMT2 C412 (UniProt P34897) 0.131
UQCRC1 C410 (UniProt P31930) 0.0727
MTOR C300 (UniProt P42345) -0.0732
POLR2B C1093 (UniProt P30876) 0.0597
NCAPD3 C1456 (UniProt P42695) 0.377
LRPPRC C1043 (UniProt P42704) -0.0107
CSTF2 C150 (UniProt P33240) 0.518
KIF5B C330 (UniProt P33176) 0.281
HSPA4 C310 (UniProt P34932) 0.104
TIA1 C33 (UniProt P31483) 0.194
TAGLN2 C124 (UniProt P37802) 0.204
MAT2A C214 (UniProt P31153) 0.0246
AGL C608 (UniProt P35573) 0.104
CAP2 C32 (UniProt P40123) -0.0924
LRPPRC C571 (UniProt P42704) 0.0791
SRI C162 (UniProt P30626) 0.236
MDH2 C128 (UniProt P40926) -0.116
FUS C444 (UniProt P35637) 0.0151
FEN1 C141 (UniProt P39748) 0.67
CCT6A C406 (UniProt P40227) 0.0852

3 records picked at random from those above:
log2 ratio of iodoacetamide-alkyne labeling, inactive:
TIA1 C33 (UniProt P31483) 0.194
NUP62 C475 (UniProt P37198) 0.074
AKT2 C297 (UniProt P31751) 0.142
